The other results are listed elsewhere or left out.

Protein sequences, listed by entry. Tags and fused reporters are not part of them. Lines headed by an entry give the natural chain unless they say otherwise; changes in a name come on top.
UniProt Q9NX00: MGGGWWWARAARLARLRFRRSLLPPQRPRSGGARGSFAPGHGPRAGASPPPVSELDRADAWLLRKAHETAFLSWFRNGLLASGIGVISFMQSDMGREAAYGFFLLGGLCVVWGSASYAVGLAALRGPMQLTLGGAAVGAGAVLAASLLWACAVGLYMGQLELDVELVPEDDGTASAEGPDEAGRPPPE
UniProt Q9NQ88: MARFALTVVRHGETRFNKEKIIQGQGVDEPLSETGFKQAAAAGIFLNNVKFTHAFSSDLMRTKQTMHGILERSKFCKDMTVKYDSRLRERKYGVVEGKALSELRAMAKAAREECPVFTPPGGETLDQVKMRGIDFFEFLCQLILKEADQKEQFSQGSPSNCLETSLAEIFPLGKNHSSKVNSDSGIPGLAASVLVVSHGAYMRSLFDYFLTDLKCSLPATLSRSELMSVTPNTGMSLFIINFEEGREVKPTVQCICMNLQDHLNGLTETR
UniProt Q8TDI8: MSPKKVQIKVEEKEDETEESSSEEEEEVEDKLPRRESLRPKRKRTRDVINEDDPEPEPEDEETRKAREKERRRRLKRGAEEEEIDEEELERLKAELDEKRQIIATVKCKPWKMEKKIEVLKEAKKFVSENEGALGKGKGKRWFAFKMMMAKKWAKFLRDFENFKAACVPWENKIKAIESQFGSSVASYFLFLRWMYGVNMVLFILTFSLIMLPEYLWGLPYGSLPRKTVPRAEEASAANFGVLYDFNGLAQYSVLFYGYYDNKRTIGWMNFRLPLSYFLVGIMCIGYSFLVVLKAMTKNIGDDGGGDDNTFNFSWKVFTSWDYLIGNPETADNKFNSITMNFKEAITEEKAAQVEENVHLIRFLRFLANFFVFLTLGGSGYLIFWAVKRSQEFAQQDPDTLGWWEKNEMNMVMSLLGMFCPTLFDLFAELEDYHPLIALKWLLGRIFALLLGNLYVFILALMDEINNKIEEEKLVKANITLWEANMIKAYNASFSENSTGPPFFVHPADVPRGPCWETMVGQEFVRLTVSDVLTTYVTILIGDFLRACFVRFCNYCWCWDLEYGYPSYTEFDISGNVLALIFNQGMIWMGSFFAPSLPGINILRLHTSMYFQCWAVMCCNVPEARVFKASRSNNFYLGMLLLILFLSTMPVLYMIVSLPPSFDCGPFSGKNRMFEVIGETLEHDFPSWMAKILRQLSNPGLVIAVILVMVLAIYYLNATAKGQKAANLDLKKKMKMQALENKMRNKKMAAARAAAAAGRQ
UniProt O43615: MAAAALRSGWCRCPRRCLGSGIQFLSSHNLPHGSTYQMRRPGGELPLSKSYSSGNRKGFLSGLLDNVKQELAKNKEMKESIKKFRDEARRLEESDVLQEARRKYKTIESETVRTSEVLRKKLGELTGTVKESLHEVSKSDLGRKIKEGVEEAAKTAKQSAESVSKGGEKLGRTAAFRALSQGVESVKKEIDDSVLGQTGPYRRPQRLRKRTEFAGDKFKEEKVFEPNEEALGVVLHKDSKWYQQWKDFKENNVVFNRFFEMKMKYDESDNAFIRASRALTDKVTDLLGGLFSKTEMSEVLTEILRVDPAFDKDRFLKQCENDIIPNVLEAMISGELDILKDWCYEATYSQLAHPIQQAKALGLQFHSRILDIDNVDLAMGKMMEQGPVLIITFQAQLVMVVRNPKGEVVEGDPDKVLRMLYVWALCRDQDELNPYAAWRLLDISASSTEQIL
UniProt O00142: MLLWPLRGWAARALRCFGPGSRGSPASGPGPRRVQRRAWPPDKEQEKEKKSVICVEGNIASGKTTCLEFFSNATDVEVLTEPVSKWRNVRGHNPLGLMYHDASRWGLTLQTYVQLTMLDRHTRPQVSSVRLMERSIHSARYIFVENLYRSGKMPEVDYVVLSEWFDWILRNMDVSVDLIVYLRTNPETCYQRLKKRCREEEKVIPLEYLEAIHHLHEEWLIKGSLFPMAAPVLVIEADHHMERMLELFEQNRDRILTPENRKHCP
UniProt Q9Y5L4: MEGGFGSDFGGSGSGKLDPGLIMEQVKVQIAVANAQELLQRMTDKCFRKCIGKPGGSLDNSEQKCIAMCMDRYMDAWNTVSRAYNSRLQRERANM
UniProt Q9NS93: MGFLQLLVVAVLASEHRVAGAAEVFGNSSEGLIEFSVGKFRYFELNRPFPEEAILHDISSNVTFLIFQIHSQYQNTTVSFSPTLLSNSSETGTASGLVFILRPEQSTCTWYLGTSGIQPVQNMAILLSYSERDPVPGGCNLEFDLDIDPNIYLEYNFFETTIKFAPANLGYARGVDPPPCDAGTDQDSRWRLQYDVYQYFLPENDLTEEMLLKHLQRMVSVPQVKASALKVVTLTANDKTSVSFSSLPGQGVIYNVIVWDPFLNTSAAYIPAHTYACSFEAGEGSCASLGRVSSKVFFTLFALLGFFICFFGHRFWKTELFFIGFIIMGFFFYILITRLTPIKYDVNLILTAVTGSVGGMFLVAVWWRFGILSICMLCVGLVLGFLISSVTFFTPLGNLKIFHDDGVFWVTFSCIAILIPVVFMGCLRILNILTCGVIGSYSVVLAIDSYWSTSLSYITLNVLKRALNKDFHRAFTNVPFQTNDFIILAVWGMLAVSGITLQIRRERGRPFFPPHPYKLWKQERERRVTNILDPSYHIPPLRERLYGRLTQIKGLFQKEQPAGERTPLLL
UniProt Q9BVV7: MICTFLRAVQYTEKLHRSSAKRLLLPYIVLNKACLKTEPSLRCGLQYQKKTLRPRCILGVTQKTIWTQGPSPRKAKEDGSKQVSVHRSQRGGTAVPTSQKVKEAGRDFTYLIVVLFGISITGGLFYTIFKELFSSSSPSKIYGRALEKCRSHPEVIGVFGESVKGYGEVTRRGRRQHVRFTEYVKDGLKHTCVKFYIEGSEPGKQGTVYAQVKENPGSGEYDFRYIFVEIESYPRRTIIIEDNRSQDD
UniProt A0PK00: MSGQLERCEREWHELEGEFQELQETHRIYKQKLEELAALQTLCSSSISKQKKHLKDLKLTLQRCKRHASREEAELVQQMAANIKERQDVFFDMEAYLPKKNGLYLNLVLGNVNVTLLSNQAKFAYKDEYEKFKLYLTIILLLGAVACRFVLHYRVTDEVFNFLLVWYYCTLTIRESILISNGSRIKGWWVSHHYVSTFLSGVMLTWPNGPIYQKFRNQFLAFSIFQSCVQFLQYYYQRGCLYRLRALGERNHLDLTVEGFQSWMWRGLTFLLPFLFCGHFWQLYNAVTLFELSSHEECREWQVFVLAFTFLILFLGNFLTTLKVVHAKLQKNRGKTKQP
UniProt Q9BZW5, whole entry, looked up: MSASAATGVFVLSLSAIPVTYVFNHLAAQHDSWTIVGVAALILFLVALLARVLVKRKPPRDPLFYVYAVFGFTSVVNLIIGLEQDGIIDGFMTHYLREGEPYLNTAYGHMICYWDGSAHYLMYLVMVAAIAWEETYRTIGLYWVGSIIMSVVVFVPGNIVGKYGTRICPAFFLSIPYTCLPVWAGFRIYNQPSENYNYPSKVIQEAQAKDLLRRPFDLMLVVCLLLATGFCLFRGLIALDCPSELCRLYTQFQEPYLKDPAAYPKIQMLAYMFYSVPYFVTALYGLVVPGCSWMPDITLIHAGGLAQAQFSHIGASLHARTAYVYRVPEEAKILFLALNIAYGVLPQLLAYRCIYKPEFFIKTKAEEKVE
UniProt Q6I9Y2: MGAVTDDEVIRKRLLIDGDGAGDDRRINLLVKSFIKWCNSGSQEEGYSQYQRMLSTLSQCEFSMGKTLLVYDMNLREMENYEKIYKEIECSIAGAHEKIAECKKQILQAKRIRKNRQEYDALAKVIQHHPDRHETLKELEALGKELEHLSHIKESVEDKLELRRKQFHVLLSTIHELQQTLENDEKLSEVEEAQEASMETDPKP
UniProt Q8NE00: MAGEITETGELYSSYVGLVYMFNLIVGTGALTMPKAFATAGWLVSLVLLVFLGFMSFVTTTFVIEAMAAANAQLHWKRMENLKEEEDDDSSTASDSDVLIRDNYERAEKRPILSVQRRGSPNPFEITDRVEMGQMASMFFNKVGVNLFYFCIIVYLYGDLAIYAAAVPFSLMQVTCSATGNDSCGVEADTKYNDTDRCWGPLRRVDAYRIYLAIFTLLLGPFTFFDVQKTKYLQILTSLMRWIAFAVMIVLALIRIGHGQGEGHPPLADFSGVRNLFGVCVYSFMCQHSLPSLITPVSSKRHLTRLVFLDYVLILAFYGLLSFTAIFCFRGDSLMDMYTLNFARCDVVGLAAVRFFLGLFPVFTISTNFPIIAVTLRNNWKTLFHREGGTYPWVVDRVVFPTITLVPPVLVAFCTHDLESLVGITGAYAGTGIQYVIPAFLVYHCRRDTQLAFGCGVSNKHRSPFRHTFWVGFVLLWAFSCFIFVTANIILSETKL
UniProt P62072: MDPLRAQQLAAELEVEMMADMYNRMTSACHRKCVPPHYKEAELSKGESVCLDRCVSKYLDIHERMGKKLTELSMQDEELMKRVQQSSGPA
UniProt Q96I45: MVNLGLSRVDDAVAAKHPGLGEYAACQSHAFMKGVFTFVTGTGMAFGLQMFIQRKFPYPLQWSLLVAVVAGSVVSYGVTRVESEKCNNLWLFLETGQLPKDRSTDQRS
UniProt Q7Z7H5: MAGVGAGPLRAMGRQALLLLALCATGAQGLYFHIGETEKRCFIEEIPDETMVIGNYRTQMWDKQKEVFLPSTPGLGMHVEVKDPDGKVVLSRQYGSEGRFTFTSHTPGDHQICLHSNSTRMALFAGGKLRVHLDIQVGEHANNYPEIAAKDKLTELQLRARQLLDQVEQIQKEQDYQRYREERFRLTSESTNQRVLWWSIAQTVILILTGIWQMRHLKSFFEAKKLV
UniProt O15321, whole entry, looked up: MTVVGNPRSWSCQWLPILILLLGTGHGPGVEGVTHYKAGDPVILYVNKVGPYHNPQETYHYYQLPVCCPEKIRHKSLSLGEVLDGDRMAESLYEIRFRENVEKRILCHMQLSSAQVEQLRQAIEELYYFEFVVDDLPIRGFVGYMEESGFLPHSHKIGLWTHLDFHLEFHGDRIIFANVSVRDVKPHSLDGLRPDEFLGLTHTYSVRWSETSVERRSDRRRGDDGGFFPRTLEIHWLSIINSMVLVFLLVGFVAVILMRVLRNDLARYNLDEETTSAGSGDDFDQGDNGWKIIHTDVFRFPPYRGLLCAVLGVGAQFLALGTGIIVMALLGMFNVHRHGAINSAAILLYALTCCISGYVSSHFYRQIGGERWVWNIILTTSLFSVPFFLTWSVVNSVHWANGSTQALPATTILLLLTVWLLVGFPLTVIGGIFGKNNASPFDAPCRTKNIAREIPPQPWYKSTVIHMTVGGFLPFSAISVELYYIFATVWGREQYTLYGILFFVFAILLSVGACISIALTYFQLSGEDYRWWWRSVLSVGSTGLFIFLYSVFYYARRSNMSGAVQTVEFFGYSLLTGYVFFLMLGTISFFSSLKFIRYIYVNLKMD
UniProt P29401: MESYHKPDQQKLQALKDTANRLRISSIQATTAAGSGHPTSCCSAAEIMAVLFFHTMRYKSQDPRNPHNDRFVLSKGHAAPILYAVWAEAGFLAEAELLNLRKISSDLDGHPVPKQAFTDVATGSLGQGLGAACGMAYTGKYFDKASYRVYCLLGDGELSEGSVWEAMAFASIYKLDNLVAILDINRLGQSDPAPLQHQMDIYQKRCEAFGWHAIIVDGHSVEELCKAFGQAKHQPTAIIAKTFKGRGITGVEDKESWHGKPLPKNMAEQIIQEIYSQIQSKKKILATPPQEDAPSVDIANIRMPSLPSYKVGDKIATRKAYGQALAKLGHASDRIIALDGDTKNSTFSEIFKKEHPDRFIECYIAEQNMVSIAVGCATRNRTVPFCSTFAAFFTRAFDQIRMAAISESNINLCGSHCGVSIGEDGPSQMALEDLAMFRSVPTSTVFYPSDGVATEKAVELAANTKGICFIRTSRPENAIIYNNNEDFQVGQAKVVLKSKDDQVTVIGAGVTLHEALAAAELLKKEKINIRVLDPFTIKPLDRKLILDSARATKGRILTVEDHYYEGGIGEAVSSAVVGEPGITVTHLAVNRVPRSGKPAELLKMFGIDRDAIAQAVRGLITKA
UniProt O43493: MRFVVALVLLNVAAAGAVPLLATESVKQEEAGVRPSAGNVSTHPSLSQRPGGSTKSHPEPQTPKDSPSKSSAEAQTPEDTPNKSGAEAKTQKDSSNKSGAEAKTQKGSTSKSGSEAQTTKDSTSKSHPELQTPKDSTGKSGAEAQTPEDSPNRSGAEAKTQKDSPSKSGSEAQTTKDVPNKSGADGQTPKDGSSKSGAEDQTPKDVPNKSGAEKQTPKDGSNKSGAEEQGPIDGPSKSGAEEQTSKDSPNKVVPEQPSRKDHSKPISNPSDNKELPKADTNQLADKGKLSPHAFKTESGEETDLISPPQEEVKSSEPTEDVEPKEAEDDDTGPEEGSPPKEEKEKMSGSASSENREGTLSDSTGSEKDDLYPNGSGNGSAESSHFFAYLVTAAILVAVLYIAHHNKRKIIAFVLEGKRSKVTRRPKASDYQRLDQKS
UniProt Q8N131: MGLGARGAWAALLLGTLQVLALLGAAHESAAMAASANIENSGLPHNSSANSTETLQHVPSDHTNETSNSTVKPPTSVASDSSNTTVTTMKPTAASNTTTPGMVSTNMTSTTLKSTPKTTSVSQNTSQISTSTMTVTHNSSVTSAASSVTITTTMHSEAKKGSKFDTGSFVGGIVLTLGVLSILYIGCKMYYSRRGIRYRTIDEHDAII

Compound in one experiment: CN1CCN(c2nc(C3=C(c4c[nH]c5ccccc45)C(=O)NC3=O)c3ccccc3n2)CC1 [sotrastaurin]
Kind of experiment: log2 fold change, soluble protein after heating vs DMSO (PISA); higher = thermal stabilisation; K562 lysate, 10 uM; active = over 0.2 and 3.5 SD of the protein, either way, in both replicates (recomputed). Put shortly: (§1)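 Pellets of K562 cells were dounce-homogenised in PBS pH 7.4 with 1 mM MgCl2, and the crude extract was held at 1 mg/mL protein for a 30 min treatment with 10 μM compound. Aliquots were heated for 3 min over 48°C-58°C and pooled before NP-40 was added to 0.5% at 4°C. The supernatant from 21,000xg for 90 min was quantified by TMTpro 16plex LC-MS/MS with channel sums equalised. Values are reported from duplicates as log-two fold change in thermal stability relative to solvent controls.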
For the target TMCO3 (UniProt Q6UWJ1), the log2 fold change is inactive: -0.03.

With TMEM160 (UniProt Q9NX00), the log2 fold change is inactive: -0.034.

On to TIGAR (UniProt Q9NQ88), for which the log2 fold change is inactive: 0.014.

As for TMC1 (UniProt Q8TDI8), the log2 fold change is inactive: 0.141.

Take TIMM44 (UniProt O43615): the log2 fold change is inactive: -0.026.

For TK2 isoform 6 (UniProt O00142), the log2 fold change is inactive: 0.

Take TK1 (UniProt K7ERV3): the log2 fold change was inactive: -0.147.

Consider THAP9 (UniProt Q9H5L6), for which the log2 fold change is inactive: 0.076.

In the case of TIMM13 (UniProt Q9Y5L4), the log2 fold change is inactive: 0.018.

Turning to TIMM10B (UniProt Q9Y5J6), the log2 fold change was inactive: -0.009.

Take TM7SF3 (UniProt Q9NS93): the log2 fold change is inactive: -0.103.

Turning to TMED1 (UniProt Q13445), the log2 fold change was inactive: -0.019.

Consider TIMM21 (UniProt Q9BVV7), for which the log2 fold change was inactive: 0.025.

Turning to TMEM120B (UniProt A0PK00), the log2 fold change was inactive: -0.016.

For TMC6 (UniProt Q7Z403), the log2 fold change is inactive: 0.016.

Take TM6SF1 (UniProt Q9BZW5): the log2 fold change is inactive: 0.056.

With THOC7 (UniProt Q6I9Y2), the log2 fold change is inactive: 0.027.

Consider TKFC (UniProt Q3LXA3), for which the log2 fold change was inactive: -0.043.

Take TMEM181 (UniProt Q9P2C4): the log2 fold change was inactive: 0.052.

As to TK1 (UniProt P04183), the log2 fold change is inactive: 0.002.

TMEM167A (UniProt Q8TBQ9): the log2 fold change was inactive: -0.093.

TMEM104 (UniProt Q8NE00): the log2 fold change is inactive: -0.034.

As to TMEM14C (UniProt Q9P0S9), the log2 fold change was inactive: 0.06.

TJP1 (UniProt G3V1L9): the log2 fold change is inactive: -0.046.

On to TMEM161B (UniProt Q8NDZ6), for which the log2 fold change was inactive: 0.009.

Take TMEM143 (UniProt Q96AN5): the log2 fold change is inactive: -0.009.

Consider TLR9 isoform 4 (UniProt Q9NR96), for which the log2 fold change is inactive: -0.046.

For the target TMEM177 (UniProt Q53S58), the log2 fold change was inactive: -0.017.

On to TGM2 (UniProt P21980), for which the log2 fold change was inactive: -0.004.

As to TIMM10 (UniProt P62072), the log2 fold change was inactive: 0.004.

As to TMEM141 (UniProt Q96I45), the log2 fold change was inactive: 0.181.

As for TMED4 (UniProt Q7Z7H5), the log2 fold change is inactive: 0.04.

As for TM9SF1 (UniProt O15321), the log2 fold change is inactive: -0.015.

TMEM167B (UniProt Q9NRX6): the log2 fold change was inactive: 0.056.

For the target TKT isoform 2 (UniProt P29401), the log2 fold change is inactive: 0.006.

For TGOLN2 isoform 7 (UniProt O43493), the log2 fold change was inactive: 0.06.

With TIAL1 isoform 2 (UniProt Q01085), the log2 fold change is inactive: -0.017.

Compound in the next experiment: CN1CC[C@H](c2c(O)cc(O)c3c(=O)cc(-c4ccccc4Cl)oc23)[C@H](O)C1 [alvocidib]
The experiment is described as above. The method, boiled down: as §1
Consider TMCO3 (UniProt Q6UWJ1), for which the log2 fold change is inactive: 0.02.

In the case of TMEM160 (UniProt Q9NX00), the log2 fold change is inactive: -0.05.

As to TIMM44 (UniProt O43615), the log2 fold change was inactive: 0.001.

Regarding TK2 isoform 6 (UniProt O00142), the log2 fold change was inactive: 0.045.

As to TK1 (UniProt K7ERV3), the log2 fold change was inactive: -0.028.

Regarding THAP9 (UniProt Q9H5L6), the log2 fold change was inactive: -0.249.

In the case of TIMM13 (UniProt Q9Y5L4), the log2 fold change is inactive: -0.016.

With TIMM10B (UniProt Q9Y5J6), the log2 fold change was inactive: 0.139.

TM7SF3 (UniProt Q9NS93): the log2 fold change was inactive: 0.004.

Consider TMED1 (UniProt Q13445), for which the log2 fold change is inactive: -0.039.

In the case of TMEM123 (UniProt Q8N131), the log2 fold change is inactive: -0.027.

For TIMM21 (UniProt Q9BVV7), the log2 fold change is inactive: -0.039.

For TM6SF1 (UniProt Q9BZW5), the log2 fold change was inactive: 0.028.

Turning to THAP11 (UniProt Q96EK4), the log2 fold change was inactive: -0.102.

As to THOC7 (UniProt Q6I9Y2), the log2 fold change was inactive: 0.

As to TKFC (UniProt Q3LXA3), the log2 fold change is inactive: -0.004.

Take TMEM181 (UniProt Q9P2C4): the log2 fold change is inactive: -0.077.

As to TK1 (UniProt P04183), the log2 fold change is inactive: -0.051.

Regarding TMEM167A (UniProt Q8TBQ9), the log2 fold change was inactive: -0.038.

As for TMEM104 (UniProt Q8NE00), the log2 fold change was inactive: -0.065.

As for TJP1 (UniProt G3V1L9), the log2 fold change is inactive: -0.09.

TMEM161B (UniProt Q8NDZ6): the log2 fold change was inactive: -0.03.

As to TMEM143 (UniProt Q96AN5), the log2 fold change is inactive: -0.065.

With TLR9 isoform 4 (UniProt Q9NR96), the log2 fold change is inactive: -0.015.

Consider TMEM177 (UniProt Q53S58), for which the log2 fold change was inactive: 0.042.

As for TGM2 (UniProt P21980), the log2 fold change was inactive: 0.001.

For TIMM10 (UniProt P62072), the log2 fold change is inactive: 0.028.

As for TMEM141 (UniProt Q96I45), the log2 fold change was inactive: -0.045.

Take TMED4 (UniProt Q7Z7H5): the log2 fold change is inactive: 0.027.

For TMEM167B (UniProt Q9NRX6), the log2 fold change was inactive: -0.167.

TKT isoform 2 (UniProt P29401): the log2 fold change is inactive: 0.009.

As for TGOLN2 isoform 7 (UniProt O43493), the log2 fold change is inactive: -0.053.

Consider TIAL1 isoform 2 (UniProt Q01085), for which the log2 fold change was inactive: -0.005.

Values taken from the supplement of paper PMC10849652.
